# Library screen at single concentrations

Measurements from “University of Dundee, Small-Polar-MMV Screening Library” (2021), ChEMBL document CHEMBL3988442.

Mtb cholesterol medium: 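Growth of Mycobacterium tuberculosis over 4 days (cholesterol / DPPC medium with tyloxapol); the read-out is not stated. Compounds at 50 µM. Direction is inferred from retests: higher values go with more growth inhibition. Size under these conditions: about 69,000 compounds, about 370 of them at 50% or above in at least one test.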
Mtb glucose medium: 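Whole-cell growth test on Mycobacterium tuberculosis, read after 3 days in glucose-containing 7H9 medium; the read-out is not stated. Concentration: 50 µM. Direction is inferred from retests: higher values go with more growth inhibition. Of about 69,000 compounds tested this way, about 760 (1.1%) reached 50% or more in at least one test.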

Results are given as percent effect.
The record does not define 0% and 100%; most values in the screen are far below 50% and negative numbers occur (in some assays of this library far below -100).
The compounds are a random part of those screened.
Two or more numbers in one place are separate tests of the same structure; such repeats can differ widely.

- Cn1ncc2c1C(COCC1CC1)CN(Cc1ccco1)C2 (stereo unspecified) : Mtb cholesterol medium: -2.521%; Mtb glucose medium: 33.72%
- COc1ccc(CNCC2CN(C3CC3)CCO2)cc1C (stereo unspecified) : Mtb cholesterol medium: -17.77%; Mtb glucose medium: 3.681%
- COc1ccc(CN2CCc3ncnc(C4CC4)c3CC2)cc1.O=C(O)C(F)(F)F : Mtb cholesterol medium: 20.52%; Mtb glucose medium: 22.3%
- CN(C)Cc1cc(=O)n2c(n1)CN(S(=O)(=O)C1CC1)CCC2.O=C(O)C(F)(F)F : Mtb cholesterol medium: 9.717%; Mtb glucose medium: -1.277%
- [H][C@@]12CS(=O)(=O)C[C@]1([H])N(C(=O)c1snnc1C)CCN2C(=O)C1CCC1 : Mtb cholesterol medium: -1.8% & -18.52%; Mtb glucose medium: -19.2%
- OC1CCN(c2ccnc(NCCN3CCc4ccccc4C3)n2)C1 (stereo unspecified) : Mtb cholesterol medium: 8.454%; Mtb glucose medium: 10.77%
- COc1cccc(-c2nc3c([nH]2)CC(C)(C)CNC3=O)c1OC : Mtb cholesterol medium: -0.4715%; Mtb glucose medium: -12.1%
- O=C(c1cc(-c2cccs2)on1)N1CCCCC1Cn1cccn1 (stereo unspecified) : Mtb cholesterol medium: -14.27%; Mtb glucose medium: 3.955%
- Cc1nc(CN2CCCC(NCCOc3ccccc3)C2)no1 (stereo unspecified) : Mtb cholesterol medium: 1.985%; Mtb glucose medium: -10.79%
- [H][C@]12CC[C@]([H])(CN(Cc3cscn3)C1)N(C(=O)CN1CCOC1=O)C2 : Mtb cholesterol medium: -42.54%; Mtb glucose medium: -16.1%
- CN(Cc1nnc(-c2ccco2)o1)Cc1nc2c(s1)CCCC2 : Mtb cholesterol medium: 8.707%; Mtb glucose medium: 6.177%
- CCCc1cc(N2CCC(NCC3(O)CCCCC3)CC2)nc(C)n1 : Mtb cholesterol medium: 28.73%; Mtb glucose medium: -2.38% & 5.987%
- Cc1ccc(S(N)(=O)=O)cc1C(=O)NC1CCN(C2CC2)CC1 : Mtb cholesterol medium: -25.62%; Mtb glucose medium: -7.243%
- CN(C)C(=O)C1CCC2(CCN(Cc3cnn(C)c3)CC2)C1.O=C(O)C(F)(F)F (stereo unspecified) : Mtb cholesterol medium: -19.22%; Mtb glucose medium: -33.19%
- Cc1cc(C(=O)N(C)C)c2c(Br)cccc2n1 : Mtb cholesterol medium: -11.63%; Mtb glucose medium: 7.654%
- [H][C@]12CCN(Cc3ccco3)[C@@]1([H])CC[C@H](COCc1ccccn1)O2 : Mtb cholesterol medium: 4.874%; Mtb glucose medium: -2.793%
- CN1CCCC(c2nnc3n2CCN(S(=O)(=O)c2ccccc2Cl)C3)C1 (stereo unspecified) : Mtb cholesterol medium: -3.435% & 1.652%; Mtb glucose medium: -24.78%
- CC(C)(C)c1n[nH]cc1CNCC1CCN(C2CC2)C1.Cl (stereo unspecified) : Mtb cholesterol medium: 56.4%; Mtb glucose medium: 63.53% & 70.38%
- CCC(CO)N(Cc1ccco1)C(=O)c1ccccc1NC (stereo unspecified) : Mtb cholesterol medium: 1.912%; Mtb glucose medium: 6.506%
- O=C(O)C(F)(F)F.O=C(O)C(F)(F)F.[H][C@@]12CN(C3CCCC3)C[C@H](C(=O)Nc3cccnc3)[C@]1([H])CCO2 : Mtb cholesterol medium: -8.454%; Mtb glucose medium: -4.316% & 4.551%
- CC(C)CNC(=O)c1[nH]nc(C2CC2)c1Br : Mtb cholesterol medium: -1.74%; Mtb glucose medium: 16.26%
- COc1ccc2c(c1)CCCN2Cc1nc(C)c(C)o1 : Mtb cholesterol medium: 1.393%; Mtb glucose medium: 14.29%
- c1ccc(OCC2CC2)c(CNC2CCc3ncnn3C2)c1 (stereo unspecified) : Mtb cholesterol medium: -7.028%; Mtb glucose medium: 23.86%
- O=C(c1ccoc1)N1CCC2(CCCN(c3ncc(F)cn3)C2)C1 (stereo unspecified) : Mtb cholesterol medium: -5.398%; Mtb glucose medium: -12.45%
- CCCNCc1ncc(C)c(OC)c1C : Mtb cholesterol medium: -4.761%; Mtb glucose medium: 34.49%
- CCS(=O)(=O)NCC(=O)N(C1CC1)C1Cc2ccccc2C1 : Mtb cholesterol medium: 4.838%; Mtb glucose medium: -15.47% & 12.61%
- NC(=O)c1sc2ccccc2c1C1CCN(S(=O)(=O)N2CCOCC2)C1 (stereo unspecified) : Mtb cholesterol medium: -61.14%; Mtb glucose medium: 25.9%
- O=C(O)C(F)(F)F.O=C(c1c[nH]cn1)N1CCOCC2(C1)CN(c1ccccc1)C(=O)CO2 (stereo unspecified) : Mtb cholesterol medium: -29.01%; Mtb glucose medium: 16.59%
- CN(Cc1ccc2c(c1)OCCO2)C(=O)NCCc1cnn(C)c1 : Mtb cholesterol medium: 9.318%; Mtb glucose medium: -47.92%
- COCCCNC(=O)CN(C)C(=O)c1ccc(OC)cc1O : Mtb cholesterol medium: -14.46%; Mtb glucose medium: -0.386%
- CN(C)c1nc(N)nc(CSCCC(=O)Nc2ccc(F)cc2)n1 : Mtb cholesterol medium: -8.788%; Mtb glucose medium: -9.669%
- [H][C@@]12CCCCN(C)[C@]1([H])[C@@H](c1ccccc1)CCN2C(=O)c1snnc1C : Mtb cholesterol medium: 14.58%; Mtb glucose medium: 24.67%
- CCOc1ccc(NC(=O)c2[nH]c(C)cc2C)cc1CO : Mtb cholesterol medium: 3.339%; Mtb glucose medium: 16.3%
- Cc1nn(C)c2c(=O)n(C(C)C)c(NCCc3ccccc3)nc12 : Mtb cholesterol medium: 1.452%; Mtb glucose medium: -5.074%
- Cc1nn(C)c2nc3c(c(C(=O)/N=c4\[nH]nc(C(C)C)s4)c12)CCC3 : Mtb cholesterol medium: 14.04%; Mtb glucose medium: -3.465%
- CC(C)(C)NC(=O)c1ccc(COCC(F)(F)F)o1 : Mtb cholesterol medium: -6.312%; Mtb glucose medium: -6.498%
- CCC(C)Oc1ccc(CNCCNC(C)=O)cc1Cl (stereo unspecified) : Mtb cholesterol medium: 1.695%; Mtb glucose medium: 14.45%
- [H][C@@]12CS(=O)(=O)C[C@]1([H])N(Cc1cc(F)cc(F)c1)CCN2CCO : Mtb cholesterol medium: 3.584%; Mtb glucose medium: -13.78%
- O=C(O)C(F)(F)F.[H][C@@]12CN(CC3CCOC3)CCC[C@]1(C(=O)O)CN(c1ncccn1)C2 (stereo partly specified) : Mtb cholesterol medium: -1.701%; Mtb glucose medium: -17.19%
- O=C(O)C(F)(F)F.O=C(O)C(F)(F)F.[H][C@@]12COC[C@]1(COc1cccnc1)CN(Cc1cccc(OC)c1)C2 : Mtb cholesterol medium: 0.6112%; Mtb glucose medium: 6.399%

The first 5 entries again:

{"compound": "Cn1ncc2c1C(COCC1CC1)CN(Cc1ccco1)C2", "stereo": "stereo unspecified", "Mtb cholesterol medium": -2.521, "Mtb glucose medium": 33.72}
{"compound": "COc1ccc(CNCC2CN(C3CC3)CCO2)cc1C", "stereo": "stereo unspecified", "Mtb cholesterol medium": -17.77, "Mtb glucose medium": 3.681}
{"compound": "COc1ccc(CN2CCc3ncnc(C4CC4)c3CC2)cc1.O=C(O)C(F)(F)F", "Mtb cholesterol medium": 20.52, "Mtb glucose medium": 22.3}
{"compound": "CN(C)Cc1cc(=O)n2c(n1)CN(S(=O)(=O)C1CC1)CCC2.O=C(O)C(F)(F)F", "Mtb cholesterol medium": 9.717, "Mtb glucose medium": -1.277}
{"compound": "[H][C@@]12CS(=O)(=O)C[C@]1([H])N(C(=O)c1snnc1C)CCN2C(=O)C1CCC1", "Mtb cholesterol medium": "-1.8 & -18.52", "Mtb glucose medium": -19.2}